The structures appear in SMILES notation.

In this data set the test system is A549, HepG2, RAW264.7, and C8-D1A cells. Description: Cellular uptake of TET with or without the lysosomal inhibitor monensin. It counts as cell-based. Conditions: 25 µM monensin.

`COc1ccc2cc1Oc1ccc(cc1)C[C@H]1c3cc(c(OC)cc3CCN1C)Oc1c(OC)c(OC)cc3c1[C@H](C2)N(C)CC3` [TET, Tetrandrine]: for the setting “2 μM TET”, the “inhibition of uptake in cells with monensin present in the LPS-treated incubation” value is ~ 40%. For the same molecule, the “effect of monensin on intracellular uptake of TET” value (four cell lines) is listed as “significantly inhibited by monensin”.

Values taken from article PMC9655037, “Alternation of Organ-Specific Exposure in LPS-Induced Pneumonia Mice after the Inhalation of Tetrandrine Is Governed by Metabolizing Enzyme Suppression and Lysosomal Trapping” (International Journal of Molecular Sciences, 2022).
